These are yes or no findings as the source states them, for the method shown. For some of these results: In cells and extracts the contact can be indirect. Some results given as binding are weak or reduced against the parent protein; the word gives no strength.
Tests used:
[1] = target: p65 (Rela), NF-κB p65 subunit (human (endogenous in A549)) (UniProt Q04206); assay: co-IP; anti-p65 antibody (CST 8242) added to whole-cell lysates of A549 cells treated with exosomes from CAFs, overnight at 4 °C, Dynabeads Protein A/G, rabbit IgG as control; immunoblot
[2] = target: GST-conjugated p65 (ab114150, Abcam) (UniProt Q04206); assay: co-IP; in vitro binding assay in IP lysis buffer: GST-conjugated p65, His-conjugated ANXA2 and folded in vitro-transcribed LINC01614 (full length, antisense control, or nucleotides 973–1775) incubated at room temperature for 1 h; immunoprecipitation and western blotting; both purified
[3] = target: GST-conjugated p65 (ab114150, Abcam) (UniProt Q04206); assay: co-IP; IP analysis with a LINC01614 mutant lacking the stem-loop structure (973–1775) in place of wild-type LINC01614; the system (recombinant proteins or cells) is not stated
[4] = target: GST-conjugated p65 (ab114150, Abcam) (UniProt Q04206); assay: condition: only with the LINC01614 mutant lacking the stem-loop structure (973–1775); co-IP; IP analysis with a LINC01614 mutant lacking the stem-loop structure (973–1775) in place of wild-type LINC01614; the system (recombinant proteins or cells) is not stated

Chains of the proteins cited; added tags and fusions are not shown.
UniProt Q04206: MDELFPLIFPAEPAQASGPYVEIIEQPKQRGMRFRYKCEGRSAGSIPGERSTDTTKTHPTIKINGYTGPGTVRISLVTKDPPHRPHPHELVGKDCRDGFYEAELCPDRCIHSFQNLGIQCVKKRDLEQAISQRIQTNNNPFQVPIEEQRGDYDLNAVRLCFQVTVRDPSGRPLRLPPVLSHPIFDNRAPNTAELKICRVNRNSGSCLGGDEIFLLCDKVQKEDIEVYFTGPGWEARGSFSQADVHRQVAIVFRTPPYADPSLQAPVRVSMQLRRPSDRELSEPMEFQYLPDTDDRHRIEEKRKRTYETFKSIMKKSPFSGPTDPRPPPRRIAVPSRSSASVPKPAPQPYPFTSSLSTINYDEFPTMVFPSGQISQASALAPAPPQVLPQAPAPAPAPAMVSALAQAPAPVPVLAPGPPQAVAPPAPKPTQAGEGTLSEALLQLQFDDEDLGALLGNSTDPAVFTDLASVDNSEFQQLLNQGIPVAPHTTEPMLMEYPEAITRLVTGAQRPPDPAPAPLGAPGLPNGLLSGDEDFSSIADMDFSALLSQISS
UniProt P07355: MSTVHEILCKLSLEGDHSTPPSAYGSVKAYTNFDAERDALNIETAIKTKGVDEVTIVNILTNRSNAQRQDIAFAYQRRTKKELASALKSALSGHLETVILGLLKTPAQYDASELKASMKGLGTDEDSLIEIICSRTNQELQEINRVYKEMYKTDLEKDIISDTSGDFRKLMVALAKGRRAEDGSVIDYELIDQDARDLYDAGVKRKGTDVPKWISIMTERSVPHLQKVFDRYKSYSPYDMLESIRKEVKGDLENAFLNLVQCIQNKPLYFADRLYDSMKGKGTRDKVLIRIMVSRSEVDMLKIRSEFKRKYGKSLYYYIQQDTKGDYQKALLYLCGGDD

| Substance | binding [1] | binding [2] | binding [3] | binding [4] |
| --- | --- | --- | --- | --- |
| Annexin A2 (ANXA2) (from UniProt P07355 1-339) | binds |  |  |  |
| His-conjugated ANXA2 (ab93005, Abcam) (from UniProt P07355 1-339) |  | binds | binds | no binding |

— PMC9548164
